Measured values published in PMC7157757.
Results are given in words; binding and its absence hold for the method and conditions named. Some results given as binding are weak or reduced against the parent protein; the word gives no strength.

B1: mediator of RNA polymerase II transcription subunit 16, recombinant (protein, UniProt Q9Y2X0 1-877)
chain: MCDLRRPAAGGMMDLAYVCEWEKWSKSTHCPSVPLACAWSCRNLIAFTMDLRSDDQDLTRMIHILDTEHPWDLHSIPSEHHEAITCLEWDQSGSRLLSADADGQIKCWSMADHLANSWESSVGSLVEGDPIVALSWLHNGVKLALHVEKSGASSFGEKFSRVKFSPSLTLFGGKPMEGWIAVTVSGLVTVSLLKPSGQVLTSTESLCRLRGRVALADIAFTGGGNIVVATADGSSASPVQFYKVCVSVVSEKCRIDTEILPSLFMRCTTDLNRKDKFPAITHLKFLARDMSEQVLLCASSQTSSIVECWSLRKEGLPVNNIFQQISPVVGDKQPTILKWRILSATNDLDRVSAVALPKLPISLTNTDLKVASDTQFYPGLGLALAFHDGSVHIVHRLSLQTMAVFYSSAAPRPVDEPAMKRPRTAGPAVHLKAMQLSWTSLALVGIDSHGKLSVLRLSPSMGHPLEVGLALRHLLFLLEYCMVTGYDWWDILLHVQPSMVQSLVEKLHEEYTRQTAALQQVLSTRILAMKASLCKLSPCTVTRVCDYHTKLFLIAISSTLKSLLRPHFLNTPDKSPGDRLTEICTKITDVDIDKVMINLKTEEFVLDMNTLQALQQLLQWVGDFVLYLLASLPNQGSLLRPGHSFLRDGTSLGMLRELMVVIRIWGLLKPSCLPVYTATSDTQDSMSLLFRLLTKLWICCRDEGPASEPDEALVDECCLLPSQLLIPSLDWLPASDGLVSRLQPKQPLRLQFGRAPTLPGSAATLQLDGLARAPGQPKIDHLRRLHLGACPTEECKACTRCGCVTMLKSPNRTTAVKQWEQRWIKNCLAVEGRGPDACVTSRASEEAPAFVQLGPQSTHHSPRTPRSLDHLHPEDRP
B2: estrogen-related receptor gamma, recombinant (protein, UniProt P62508 1-458)
chain: MDSVELCLPESFSLHYEEELLCRMSNKDRHIDSSCSSFIKTEPSSPASLTDSVNHHSPGGSSDASGSYSSTMNGHQNGLDSPPLYPSAPILGGSGPVRKLYDDCSSTIVEDPQTKCEYMLNSMPKRLCLVCGDIASGYHYGVASCEACKAFFKRTIQGNIEYSCPATNECEITKRRRKSCQACRFMKCLKVGMLKEGVRLDRVRGGRQKYKRRIDAENSPYLNPQLVQPAKKPYNKIVSHLLVAEPEKIYAMPDPTVPDSDIKALTTLCDLADRELVVIIGWAKHIPGFSTLSLADQMSLLQSAWMEILILGVVYRSLSFEDELVYADDYIMDEDQSKLAGLLDLNNAILQLVKKYKSMKLEKEEFVTLKAIALANSDSMHIEDVEAVQKLQDVLHEALQDYEAGQHMEDPRRAGKMLMTLPLLRQTSTKAVQHFYNIKLEGKVPMHKLFLEMLEAKV
B3: RING finger protein 10, recombinant (protein, UniProt Q8N5U6 1-811)
chain: MPLSSPNAAATASDMDKNSGSNSSSASSGSSKGQQPPRSASAGPAGESKPKSDGKNSSGSKRYNRKRELSYPKNESFNNQSRRSSSQKSKTFNKMPPQRGGGSSKLFSSSFNGGRRDEVAEAQRAEFSPAQFSGPKKINLNHLLNFTFEPRGQTGHFEGSGHGSWGKRNKWGHKPFNKELFLQANCQFVVSEDQDYTAHFADPDTLVNWDFVEQVRICSHEVPSCPICLYPPTAAKITRCGHIFCWACILHYLSLSEKTWSKCPICYSSVHKKDLKSVVATESHQYVVGDTITMQLMKREKGVLVALPKSKWMNVDHPIHLGDEQHSQYSKLLLASKEQVLHRVVLEEKVALEQQLAEEKHTPESCFIEAAIQELKTREEALSGLAGSRREVTGVVAALEQLVLMAPLAKESVFQPRKGVLEYLSAFDEETTEVCSLDTPSRPLALPLVEEEEAVSEPEPEGLPEACDDLELADDNLKEGTICTESSQQEPITKSGFTRLSSSPCYYFYQAEDGQHMFLHPVNVRCLVREYGSLERSPEKISATVVEIAGYSMSEDVRQRHRYLSHLPLTCEFSICELALQPPVVSKETLEMFSDDIEKRKRQRQKKAREERRRERRIEIEENKKQGKYPEVHIPLENLQQFPAFNSYTCSSDSALGPTSTEGHGALSISPLSRSPGSHADFLLTPLSPTASQGSPSFCVGSLEEDSPFPSFAQMLRVGKAKADVWPKTAPKKDENSLVPPAPVDSDGESDNSDRVPVPSFQNSFSQAIEAAFMKLDTPATSDPLSEEKGGKKRKKQKQKLLFSTSVVHTK
B4: protein Wnt-2, recombinant (protein, UniProt P09544 26-360)
chain: SWWYMRATGGSSRVMCDNVPGLVSSQRQLCHRHPDVMRAISQGVAEWTAECQHQFRQHRWNCNTLDRDHSLFGRVLLRSSRESAFVYAISSAGVVFAITRACSQGEVKSCSCDPKKMGSAKDSKGIFDWGGCSDNIDYGIKFARAFVDAKERKGKDARALMNLHNNRAGRKAVKRFLKQECKCHGVSGSCTLRTCWLAMADFRKTGDYLWRKYNGAIQVVMNQDGTGFTVANERFKKPTKNDLVYFENSPDYCIRDREAGSLGTAGRVCNLTSRGMDSCEVMCCGRGYDTSHVTRMTKCGCKFHWCCAVRCQDCLEALDVHTCKAPKNADWTTAT

Biological target: Recombinant human (Myc-DDK-tagged) AKR2 (human) (UniProt Q53H80)
Test: pull-down; recombinant interacting protein incubated with Myc-DDK-tagged AKR2 for 2 h, then 30 min with c-Myc magnetic beads, shaking, room temperature; eluted with Laemmli sample buffer; Western blot with antibodies specific for the interacting protein; both purified

binding, binds:
B1, B2, B3, B4
